According to article doi:10.1101/2023.11.26.568767:
No constants are given. Whether binding was seen depends on the method and setting. Some binding calls cover weakened binding; strength is not graded here.

T1: GTP BINDING PROTEIN BETA 1 (AGB1), splice isoform AGB1.1 (Arabidopsis thaliana) (UniProt P49177)
T1 sequence: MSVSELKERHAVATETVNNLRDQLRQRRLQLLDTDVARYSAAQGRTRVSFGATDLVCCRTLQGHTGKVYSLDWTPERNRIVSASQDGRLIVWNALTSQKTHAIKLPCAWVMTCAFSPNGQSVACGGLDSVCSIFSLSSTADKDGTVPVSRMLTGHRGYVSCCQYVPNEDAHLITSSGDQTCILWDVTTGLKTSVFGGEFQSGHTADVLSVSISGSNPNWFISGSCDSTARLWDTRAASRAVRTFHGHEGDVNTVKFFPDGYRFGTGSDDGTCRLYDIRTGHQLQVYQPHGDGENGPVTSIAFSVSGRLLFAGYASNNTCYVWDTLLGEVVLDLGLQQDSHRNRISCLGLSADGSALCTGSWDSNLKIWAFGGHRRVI


target: T1, GTP BINDING PROTEIN BETA 1 (AGB1), splice isoform AGB1.1 (Arabidopsis thaliana); assay: two-hybrid

Row | Binder | binding
1 | G protein γ subunit AGG1 (protein, UniProt Q9FDX9 1-98) MREETVVYEQEESVSHGGGKHRILAELARVEQEVAFLEKELKEVENTDIVSTVCEELLSVIEKGPDPLLPLTNGPLNLGWDRWFEGPNGGEGCRCLIL | binds
2 | G protein γ subunit AGG2 (protein, UniProt Q93V47 1-100) MEAGSSNSSGQLSGRVVDTRGKHRIQAELKRLEQEARFLEEELEQLEKMDNASASCKEFLDSVDSKPDPLLPETTGPVNATWDQWFEGPKEAKRCGCSIL | binds weakly
3 | G protein γ subunit AGG3 (protein, UniProt Q6AWT8 1-251) MSAPSGGGEGGGKESAAGGVSSSSLAPSSLPPPRPKSPPEYPDLYGKRREAARVQMLEREIGFLEGEIKFIEGVQPASRCIKEVSDFVVANSDPLIPAQRKSRRSFRFWKWLCGPCLSLVSFCCCCQSKCSCHLRKPKCCNCTSCSCIGSKCCDGSCCSNICCCPRLSCPSCSCFRGCWCSCPDMSCCIPSCFRSCSCTRPSCLNKKKSSCCSCNCKIRWSSCFSCPKVRLCSCCFCNCKNLCSNPCCLAF | binds
